Test results taken from PubChem BioAssay AID493014 (National Center for Advancing Translational Sciences (NCATS), 2011).
The list shows a part of the results. The main result of the screen is listed elsewhere. These columns were measured beside it and carry no call. Most of these compounds were active or inconclusive in the main read-out, so they are no random draw. The note in brackets gives the kind of curve behind each potency; many fits are weak.

Assay: qHTS Assay to Find Inhibitors of Chronic Active B-Cell Receptor Signaling
Conditions: ABC-DLBCL IkBa-CBG/CBR reporter, luminescence ratio (green luciferase fused to IkBa over red control in TMD8 lymphoma cells), 4 h
Summary of the method: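 Compounds up to 46 uM were incubated four hours with TMD8 cells whose green CBG68 luciferase is fused to IkappaBalpha; red CBR luminescence normalised the signal, and concentration-effect curves were fitted to fusion, red and ratio data.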

[1] = measured here: CBR red luminescence, cell number
[2] = measured here: IkBa-CBG green luminescence

Compound | AC50 [1] | AC50 [2]
O=C(COC(=O)CNC(=O)c1ccccc1)NC1CCCCC1 | 11.6 µM [rising, partial curve] | –
CN(C(=O)c1ccc2nc(N)sc2c1)c1ccccc1 | 3.55 µM [rising, full curve, poor fit] | –
CNC(=S)N/N=C/c1ccc(N2CCOCC2)s1 | 3.55 µM [falling, full curve, poor fit] | 5.01 µM [falling, full curve]
O=C(CN1CCN(c2ccccc2F)CC1)c1c[nH]c2ccc(F)cc12 | 8.2 µM [falling, partial curve, poor fit] | –
CCCCn1c(O)c(/C=C2\C=Nc3ccccc32)c(=O)[nH]c1=O | 15.8 µM [falling, single point] | –
COc1ccc2c(c1)C(C)=CC(C)(C)N2S(=O)(=O)c1ccc(Br)cc1 | 3.98 µM [rising, full curve] | 3.98 µM [falling, full curve]
CC(=O)Nc1cccc(NC(=O)CSc2ccc(-c3ccccn3)nn2)c1 | 5.62 µM [rising, partial curve, poor fit] | –
Cc1ccc(S(=O)(=O)Nc2c(O)c3ccccc3oc2=O)cc1C | 4.47 µM [falling, partial curve, poor fit] | –
Cc1nc2ncnn2c(C)c1CCC(=O)NCc1ccc2c(c1)OCO2 | 1.41 µM [rising, full curve, poor fit] | –
O=C(CSc1nccn(-c2ccc(F)c(F)c2)c1=O)NC1CCCC1 | 29.1 µM [falling, single point] | –
Nc1nc(-c2c(Cl)cccc2Cl)no1 | 0.1 µM [rising, full curve, poor fit] | –
Cc1c(N=CN2CCOCC2)c(=O)n(C)c(=O)n1C | 5.17 µM [rising, full curve, poor fit] | –
O=c1c2ccccc2nc2n1C(CBr)CN2 (stereo not drawn) | 35.5 µM [rising, partial curve, poor fit] | –
O=C1NC(=S)S/C1=C\C=C\c1ccc([N+](=O)[O-])o1 | 35.5 µM [falling, single point] | 35.5 µM [rising, single point]
Nc1nc(/C=C/c2cccnc2)nc(-c2ccccc2O)n1 | – | 0.562 µM [rising, full curve, poor fit]
OC(COCC(F)(F)C(F)(F)C(F)(F)C(F)F)Cn1c2ccc(Cl)cc2c2cc(Cl)ccc21 (stereo not drawn) | 23.1 µM [falling, single point] | 6.51 µM [rising, partial curve, poor fit]
CC(=O)c1c(C)[nH]c(C2=NNC(=NC(C)(C)C)SC2)c1C | 31.6 µM [falling, single point] | –
Cc1ccccc1OCC(=O)Nc1cc(S(=O)(=O)N2CCOCC2)ccc1N1CCCC1 | 1.64 µM [falling, full curve] | –
Cc1cc(C)n2ncc(/C(N)=N/OC(=O)Nc3ccc(Cl)cc3)c2n1 | 8.91 µM [rising, partial curve, poor fit] | –
Cc1ccc2c(C)ccc(O)c2n1 | 9.2 µM [rising, partial curve] | –
CN1C(=O)NC(c2ccc([N+](=O)[O-])cc2)C2=C1CC(C)(C)CC2=O (stereo not drawn) | 31.6 µM [rising, single point] | –

Compound | AC50 [1] | AC50 [2]
CCc1cc(C(=O)NNC(=S)Nc2cc(C)ccc2C)cs1 | 0.82 µM [falling, full curve] | –
O=C(c1ccccc1)N1CCN(C(=O)C23CC4CC(CC(C4)C2)C3)CC1 | 1.78 µM [falling, partial curve] | –
CS(=O)(=O)c1ccc2nc(NC(=O)CCNC(=O)c3ccc([N+](=O)[O-])cc3)sc2c1 | 7.31 µM [rising, partial curve] | –
CCC(Sc1nc2cc(OC)c(OC)cc2c(=O)n1Cc1ccco1)C(=O)NCCOC (stereo not drawn) | 5.01 µM [falling, partial curve, poor fit] | –
C=CCOC(=O)CN1C(=O)c2ccccc2C1=O | 2.24 µM [falling, partial curve, poor fit] | –
CN=C1SC(CC(=O)Nc2sc(C)c(C)c2C(=O)OC)C(=O)N1C (stereo not drawn) | 3.16 µM [rising, single point] | –
CCOC(=O)c1c(C)[nH]c(C)c1C(=O)COC(=O)CNC(=O)c1ccc(OCC)cc1 | 4.61 µM [rising, partial curve, poor fit] | –
CC1(C(=O)NCC2CCCO2)Oc2cccnc2NC1=O (stereo not drawn) | 0.112 µM [rising, full curve, poor fit] | –
CCOc1ccccc1C1CC(c2cccc(NS(C)(=O)=O)c2)=NN1C(=O)c1ccccc1 (stereo not drawn) | 20.6 µM [falling, single point] | –
COc1ccc(C(CNC(=O)c2cc3ccccc3cc2OC)N2CCCC2)cc1 (stereo not drawn) | 32.6 µM [rising, single point] | –
O=C(Nc1ccc(Cl)cc1)c1cccc(S(=O)(=O)Nc2ccccn2)c1 | 0.794 µM [falling, partial curve, poor fit] | –
Cc1ccc2nc(/C(C#N)=N/O)[nH]c2c1 | 2.06 µM [falling, partial curve, poor fit] | –
CCCC(=O)Nc1nnc(-c2ccco2)s1 | 32.6 µM [falling, single point] | –
Nc1ccc(C(=O)c2cccs2)cc1[N+](=O)[O-] | 7.94 µM [rising, partial curve] | –
O=C(Nc1ccc(Cl)cc1)N1CCOCC1 | 0.501 µM [rising, full curve, poor fit] | –
O=C(Nc1ccc(F)cc1)c1cc2ccccc2o1 | 10 µM [falling, partial curve] | –
Cc1cccc(C(=O)O/N=C/c2c(Cl)n(C)c3ccccc23)c1 | 11.6 µM [rising, partial curve] | –
CCCCC[n+]1ccn(C2=C([O-])c3ccccc3C(=O)/C2=N\S(=O)(=O)c2ccccc2)c1 | 0.794 µM [falling, partial curve, poor fit] | –
O=C1CCCc2c1cc(C(=O)Nc1ccc(Br)cn1)c(=O)n2-c1ccccc1 | 0.00517 µM [rising, full curve, poor fit] | –
COc1ccc(/C=C2\SC(=S)N(CCC(=O)Nc3cccc(O)c3)C2=O)cc1 | 2.51 µM [falling, full curve] | –
Cn1c(SCn2nnc3ccccc3c2=O)nc2ccccc2c1=O | 0.631 µM [falling, full curve, poor fit] | –

Compound | AC50 [1] | AC50 [2]
CCCCCCCN1C(Nc2ccccc2)=NC[C@@H]1CC(C)C | 5.62 µM [falling, partial curve, poor fit] | –
CCOc1cc(N2CCOCC2)c(OCC)cc1NC(=O)c1ccccc1 | 3.98 µM [rising, full curve] | –
COc1ccc(OC)c(C(C)NC(=O)Nc2cccc(C(C)=O)c2)c1 (stereo not drawn) | 10 µM [rising, partial curve, poor fit] | –
COC(=O)C1CCN(C(=O)c2c(-c3ccccc3Cl)noc2C)CC1 | 29.1 µM [rising, single point] | –
O=C(O)c1ccc(N=Cc2c(O)ccc3oc4c(c23)CCCC4)cc1 | 35.5 µM [rising, partial curve, poor fit] | –
Cc1ccc(C2=CC(c3ccccc3C)n3c(nc4ccccc43)N2)cc1 (stereo not drawn) | 2 µM [falling, full curve] | 15.8 µM [rising, partial curve, poor fit]
CCOc1ccc(C2=NNC(c3cccs3)=Nc3ccc(OCC)cc32)cc1 | 29.1 µM [rising, single point] | –
CC(C)C1=NN2C(=N)CC(=O)N=C2S1 | 11.2 µM [rising, partial curve] | –
CN(C)CCCNC(=O)C[C@H]1C[C@H](C(=O)N2CCCCC2)[C@@]2(CCc3ccccc3)c3[nH]c4ccc(Cl)cc4c3CCN2C1=O | 29.1 µM [falling, single point] | –
Nc1nc2ccc(C(=O)Nc3ccccc3)cc2s1 | 15.8 µM [falling, single point] | –
CSCCC(NS(=O)(=O)c1ccccc1)C(=O)OC(C)C(=O)Nc1ccc(Cl)cn1 (stereo not drawn) | 5.17 µM [falling, full curve] | –
COc1ccc(Cc2nnc(SCC(=O)c3c(N)n(C4CC4)c(=O)[nH]c3=O)o2)cc1 | 0.00461 µM [falling, full curve, poor fit] | –
Cc1[nH][nH]c(=O)c1C(c1c(C)[nH][nH]c1=O)c1cn(Cc2ccc(Cl)c(Cl)c2)c2ccccc12 | 20.6 µM [falling, partial curve] | 23.1 µM [falling, single point]
COc1ccc(S(=O)(=O)N(C)CC(=O)Nc2ccccc2C(F)(F)F)cc1 | 0.461 µM [rising, full curve, poor fit] | –
COc1cc(F)c(S(=O)(=O)N2CCOc3ccccc32)cc1OC | 3.98 µM [rising, full curve, poor fit] | –
CCC1CCCCN1S(=O)(=O)c1ccc(C(=O)N(CCCN(C)C)c2nc3cc4c(cc3s2)OCO4)cc1 (stereo not drawn) | 31.6 µM [falling, single point] | –
CCCCCC(=O)Nc1cccc(C2=NOC3(C2)C[C@H](C(N)=O)N(C(=O)CC)C3)c1 (stereo partly drawn) | 17.8 µM [falling, single point] | –
CN(c1ccccc1)S(=O)(=O)c1cccc(NC(=O)Cc2n[nH]c(=O)c3ccccc23)c1 | 20.6 µM [falling, partial curve] | –
O=C(N/N=C\c1ccco1)Nc1cccc(Cl)c1 | 13 µM [falling, partial curve] | –
O=C(Cc1c(O)c2ccccc2[nH]c1=O)NC1CCCCCC1 | 31.6 µM [falling, partial curve, poor fit] | –

In a second layout: results already given
Compound,AC50 [1],AC50 [2]
CCOc1ccc(C2=NNC(c3cccs3)=Nc3ccc(OCC)cc32)cc1,"29.1 µM [rising, single point]",–
CC(C)C1=NN2C(=N)CC(=O)N=C2S1,"11.2 µM [rising, partial curve]",–
CN(C)CCCNC(=O)C[C@H]1C[C@H](C(=O)N2CCCCC2)[C@@]2(CCc3ccccc3)c3[nH]c4ccc(Cl)cc4c3CCN2C1=O,"29.1 µM [falling, single point]",–
Nc1nc2ccc(C(=O)Nc3ccccc3)cc2s1,"15.8 µM [falling, single point]",–
